Results reported in publication PMC5472764.

Sequences of proteins named here, by UniProt entry; tags and fusion partners are left off.
UniProt Q14571: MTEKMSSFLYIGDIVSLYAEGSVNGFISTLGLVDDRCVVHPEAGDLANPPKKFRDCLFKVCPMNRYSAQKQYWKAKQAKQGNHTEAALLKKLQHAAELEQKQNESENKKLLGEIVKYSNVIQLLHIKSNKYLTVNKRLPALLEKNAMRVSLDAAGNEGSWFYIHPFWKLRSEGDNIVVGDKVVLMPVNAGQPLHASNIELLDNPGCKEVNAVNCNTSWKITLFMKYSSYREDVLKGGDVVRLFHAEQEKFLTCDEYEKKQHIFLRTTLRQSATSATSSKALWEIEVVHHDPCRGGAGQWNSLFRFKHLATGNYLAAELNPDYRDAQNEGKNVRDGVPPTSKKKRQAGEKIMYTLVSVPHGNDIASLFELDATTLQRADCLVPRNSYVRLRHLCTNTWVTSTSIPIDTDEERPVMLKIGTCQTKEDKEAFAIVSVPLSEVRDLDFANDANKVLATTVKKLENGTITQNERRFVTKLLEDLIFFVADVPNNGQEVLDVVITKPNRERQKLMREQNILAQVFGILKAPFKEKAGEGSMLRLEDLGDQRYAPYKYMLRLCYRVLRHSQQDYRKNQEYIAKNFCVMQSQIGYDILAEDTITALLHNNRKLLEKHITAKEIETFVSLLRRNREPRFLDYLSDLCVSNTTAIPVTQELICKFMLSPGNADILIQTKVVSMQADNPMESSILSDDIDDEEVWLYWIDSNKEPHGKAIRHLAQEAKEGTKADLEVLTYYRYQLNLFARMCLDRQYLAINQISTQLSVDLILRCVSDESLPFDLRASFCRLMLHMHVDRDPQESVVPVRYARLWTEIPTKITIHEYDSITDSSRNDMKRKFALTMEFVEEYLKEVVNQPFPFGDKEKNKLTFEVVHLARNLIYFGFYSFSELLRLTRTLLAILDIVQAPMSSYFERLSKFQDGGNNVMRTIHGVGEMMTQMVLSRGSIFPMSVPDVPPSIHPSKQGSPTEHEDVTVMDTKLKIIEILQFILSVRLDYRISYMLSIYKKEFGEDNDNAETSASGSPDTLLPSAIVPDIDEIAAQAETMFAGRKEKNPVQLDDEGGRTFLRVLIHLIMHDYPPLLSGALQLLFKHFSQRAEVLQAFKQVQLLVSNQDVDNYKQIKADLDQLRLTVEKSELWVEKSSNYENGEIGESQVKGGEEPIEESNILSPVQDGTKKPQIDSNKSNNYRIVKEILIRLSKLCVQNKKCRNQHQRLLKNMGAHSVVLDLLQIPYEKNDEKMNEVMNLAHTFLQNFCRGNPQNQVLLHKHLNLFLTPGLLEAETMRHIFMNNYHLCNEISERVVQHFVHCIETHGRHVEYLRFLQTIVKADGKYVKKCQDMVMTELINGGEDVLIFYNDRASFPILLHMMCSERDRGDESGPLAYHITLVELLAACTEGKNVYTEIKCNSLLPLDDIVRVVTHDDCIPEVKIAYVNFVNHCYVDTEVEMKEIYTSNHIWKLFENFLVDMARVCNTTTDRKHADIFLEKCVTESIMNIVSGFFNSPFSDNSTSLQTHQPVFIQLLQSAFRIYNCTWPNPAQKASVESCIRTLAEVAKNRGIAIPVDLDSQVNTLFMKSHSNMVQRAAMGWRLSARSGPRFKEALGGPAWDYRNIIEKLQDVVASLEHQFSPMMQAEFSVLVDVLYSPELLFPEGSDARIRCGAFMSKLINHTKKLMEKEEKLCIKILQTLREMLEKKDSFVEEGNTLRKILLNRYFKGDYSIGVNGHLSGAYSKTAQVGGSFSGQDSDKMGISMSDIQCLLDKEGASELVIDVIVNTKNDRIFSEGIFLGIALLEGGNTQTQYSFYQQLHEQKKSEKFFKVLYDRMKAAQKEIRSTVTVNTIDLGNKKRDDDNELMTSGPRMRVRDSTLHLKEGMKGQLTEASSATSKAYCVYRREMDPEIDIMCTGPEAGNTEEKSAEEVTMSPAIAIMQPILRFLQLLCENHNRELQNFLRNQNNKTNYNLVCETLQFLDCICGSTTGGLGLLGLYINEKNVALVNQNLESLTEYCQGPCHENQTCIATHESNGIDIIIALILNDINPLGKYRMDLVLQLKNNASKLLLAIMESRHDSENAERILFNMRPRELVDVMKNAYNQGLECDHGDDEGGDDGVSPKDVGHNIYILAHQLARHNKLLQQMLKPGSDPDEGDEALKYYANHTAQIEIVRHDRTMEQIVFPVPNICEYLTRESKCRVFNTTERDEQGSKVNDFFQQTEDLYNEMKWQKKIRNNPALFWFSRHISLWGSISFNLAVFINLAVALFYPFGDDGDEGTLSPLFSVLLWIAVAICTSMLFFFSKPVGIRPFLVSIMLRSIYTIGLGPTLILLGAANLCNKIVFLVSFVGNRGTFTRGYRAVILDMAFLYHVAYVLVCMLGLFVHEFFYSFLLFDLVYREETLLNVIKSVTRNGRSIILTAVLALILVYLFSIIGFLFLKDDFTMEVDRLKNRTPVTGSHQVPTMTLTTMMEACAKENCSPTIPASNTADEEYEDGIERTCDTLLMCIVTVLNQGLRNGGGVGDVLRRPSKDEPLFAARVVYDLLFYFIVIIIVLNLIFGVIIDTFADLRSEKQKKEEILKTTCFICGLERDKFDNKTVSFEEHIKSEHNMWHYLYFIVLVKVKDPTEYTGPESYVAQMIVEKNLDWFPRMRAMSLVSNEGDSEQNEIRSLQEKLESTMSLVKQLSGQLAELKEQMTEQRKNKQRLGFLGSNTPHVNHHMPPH
UniProt Q14573: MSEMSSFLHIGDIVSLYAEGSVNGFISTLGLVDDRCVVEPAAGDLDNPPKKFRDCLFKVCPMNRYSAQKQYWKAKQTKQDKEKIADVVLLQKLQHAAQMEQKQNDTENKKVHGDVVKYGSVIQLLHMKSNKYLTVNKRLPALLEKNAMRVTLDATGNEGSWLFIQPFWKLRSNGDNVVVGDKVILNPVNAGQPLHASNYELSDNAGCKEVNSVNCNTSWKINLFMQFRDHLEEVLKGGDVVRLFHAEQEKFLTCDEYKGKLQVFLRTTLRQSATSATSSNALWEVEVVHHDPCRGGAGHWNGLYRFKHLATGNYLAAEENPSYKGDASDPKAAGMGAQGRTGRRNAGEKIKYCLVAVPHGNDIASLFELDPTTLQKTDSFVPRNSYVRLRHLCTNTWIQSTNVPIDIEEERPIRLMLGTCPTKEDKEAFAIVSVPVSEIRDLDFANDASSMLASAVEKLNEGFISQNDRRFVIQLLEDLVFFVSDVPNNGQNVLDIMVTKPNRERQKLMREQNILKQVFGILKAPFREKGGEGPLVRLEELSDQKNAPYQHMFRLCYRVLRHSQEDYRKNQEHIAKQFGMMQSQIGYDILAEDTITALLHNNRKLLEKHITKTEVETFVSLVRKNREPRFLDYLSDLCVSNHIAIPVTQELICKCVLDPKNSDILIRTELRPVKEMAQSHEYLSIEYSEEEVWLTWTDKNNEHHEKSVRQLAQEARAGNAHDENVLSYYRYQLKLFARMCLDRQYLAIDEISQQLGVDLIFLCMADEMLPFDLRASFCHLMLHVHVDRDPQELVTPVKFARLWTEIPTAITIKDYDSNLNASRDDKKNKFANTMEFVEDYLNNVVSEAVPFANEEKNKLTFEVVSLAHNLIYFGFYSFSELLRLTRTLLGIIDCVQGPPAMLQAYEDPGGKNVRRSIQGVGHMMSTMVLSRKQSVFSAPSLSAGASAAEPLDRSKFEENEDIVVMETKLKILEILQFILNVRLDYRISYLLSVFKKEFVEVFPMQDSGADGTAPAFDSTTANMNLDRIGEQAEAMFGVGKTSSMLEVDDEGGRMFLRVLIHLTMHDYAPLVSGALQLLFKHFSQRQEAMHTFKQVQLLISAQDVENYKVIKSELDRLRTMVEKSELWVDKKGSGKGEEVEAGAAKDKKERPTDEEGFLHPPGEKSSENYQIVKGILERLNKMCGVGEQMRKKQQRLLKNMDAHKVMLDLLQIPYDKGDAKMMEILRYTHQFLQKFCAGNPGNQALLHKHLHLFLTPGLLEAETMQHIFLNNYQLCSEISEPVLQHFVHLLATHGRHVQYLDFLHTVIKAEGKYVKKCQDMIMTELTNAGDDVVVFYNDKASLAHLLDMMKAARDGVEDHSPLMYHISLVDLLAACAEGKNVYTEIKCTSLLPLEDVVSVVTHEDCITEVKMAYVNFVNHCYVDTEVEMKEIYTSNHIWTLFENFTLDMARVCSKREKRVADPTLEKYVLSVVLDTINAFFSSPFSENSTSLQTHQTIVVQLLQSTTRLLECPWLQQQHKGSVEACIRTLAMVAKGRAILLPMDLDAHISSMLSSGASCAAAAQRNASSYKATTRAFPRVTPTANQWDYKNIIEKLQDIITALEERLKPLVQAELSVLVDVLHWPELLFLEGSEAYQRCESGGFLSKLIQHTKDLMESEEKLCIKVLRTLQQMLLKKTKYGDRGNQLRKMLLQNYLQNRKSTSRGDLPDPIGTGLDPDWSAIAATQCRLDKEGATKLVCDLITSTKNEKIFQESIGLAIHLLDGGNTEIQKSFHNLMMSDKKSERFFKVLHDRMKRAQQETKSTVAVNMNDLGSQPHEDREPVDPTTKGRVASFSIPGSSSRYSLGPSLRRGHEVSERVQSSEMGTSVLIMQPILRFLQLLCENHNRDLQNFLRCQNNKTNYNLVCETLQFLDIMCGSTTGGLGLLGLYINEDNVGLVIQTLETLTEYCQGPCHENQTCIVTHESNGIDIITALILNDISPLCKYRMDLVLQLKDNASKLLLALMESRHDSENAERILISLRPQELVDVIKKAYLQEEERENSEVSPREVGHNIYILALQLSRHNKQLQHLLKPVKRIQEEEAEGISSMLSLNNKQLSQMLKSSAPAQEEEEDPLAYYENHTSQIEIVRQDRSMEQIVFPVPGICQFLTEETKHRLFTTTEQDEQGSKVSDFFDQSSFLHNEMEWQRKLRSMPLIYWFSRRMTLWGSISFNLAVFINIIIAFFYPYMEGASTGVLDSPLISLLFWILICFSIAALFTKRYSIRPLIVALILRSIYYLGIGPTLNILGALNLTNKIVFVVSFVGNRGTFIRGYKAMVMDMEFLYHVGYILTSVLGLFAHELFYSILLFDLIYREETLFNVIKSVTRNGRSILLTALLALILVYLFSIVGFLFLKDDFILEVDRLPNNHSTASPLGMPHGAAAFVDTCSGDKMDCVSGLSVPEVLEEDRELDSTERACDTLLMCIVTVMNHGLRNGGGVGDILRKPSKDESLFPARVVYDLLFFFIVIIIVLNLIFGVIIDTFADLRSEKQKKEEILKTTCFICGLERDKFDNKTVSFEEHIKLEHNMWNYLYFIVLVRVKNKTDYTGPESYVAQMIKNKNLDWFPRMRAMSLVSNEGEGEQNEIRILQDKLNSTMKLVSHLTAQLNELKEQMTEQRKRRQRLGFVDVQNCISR

Molecular target: T1, Flag-tagged Tespa1 in Jurkat cells (J-Tespa1) (mouse) (UniProt Q3U132)
T1 sequence: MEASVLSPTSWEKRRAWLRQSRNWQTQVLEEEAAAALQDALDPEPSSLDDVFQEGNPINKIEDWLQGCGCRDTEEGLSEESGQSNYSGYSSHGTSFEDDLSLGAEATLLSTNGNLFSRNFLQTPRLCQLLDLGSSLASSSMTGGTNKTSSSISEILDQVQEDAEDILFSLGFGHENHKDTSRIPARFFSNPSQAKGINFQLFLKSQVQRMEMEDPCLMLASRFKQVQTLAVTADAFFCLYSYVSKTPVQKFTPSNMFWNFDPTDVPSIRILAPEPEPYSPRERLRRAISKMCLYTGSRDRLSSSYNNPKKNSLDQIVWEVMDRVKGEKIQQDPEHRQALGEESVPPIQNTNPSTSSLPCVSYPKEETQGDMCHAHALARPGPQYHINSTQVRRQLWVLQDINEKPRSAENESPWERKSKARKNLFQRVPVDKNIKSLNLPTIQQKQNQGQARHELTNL
Experiment: affinity purification with mass spectrometry; Flag-tagged Tespa1 pulled down with anti-Flag beads from whole-cell lysates of anti-CD3 plus anti-CD28-stimulated Jurkat cells; precipitates to mass spectrometry

Row | binding | Substance
1 | binds | IP3R2, endogenous in Jurkat cells (from UniProt Q14571 1-2701) (receptor)
2 | binds | IP3R3, endogenous in Jurkat cells (from UniProt Q14573 1-2671) (receptor)

No constants are given. Whether binding was seen depends on the method and setting. In cells and extracts the contact can be indirect. A yes stands for co-enrichment or nearness to the bait. Other partners may have been found. Sequences can lack the tags named with a protein.
